Laboratory results taken from PubChem BioAssay AID248 (DTP/NCI, 2004).
The list shows only some results of the screen, not a fair sample: it gathers tests that were run many times, whatever their T/C, doses with no T/C, and many T/C values between a quarter and a half above the control. Other doses and runs of a compound stand elsewhere. T/C gives the treated animals as a percentage of the vehicle group. Some entries give survivors of the animals treated and no T/C: the source holds a T/C of zero for them, seemingly a mark for toxic or unscored doses. Some doses without a T/C left all or most animals alive at the check, yet need not have been tolerated: survival well below the control is almost never listed, so the zero probably covers shortened survival too. Counts of survivors are from the toxicity check (mostly the fifth day) where no day follows; animals may have died later. Schedule codes are those of the source, read here as Q, the interval in days (D) or hours (H), X, the number of doses. Where survival is the endpoint, the PubChem record calls one and a half times the control and up active, and a quarter to a half above the control has no call in these data; cut-offs in other NCI protocols can differ. Some T/C values are followed by the survivors on the day toxicity was checked, most often the fifth; where none is given, no animal had died by that day. Some entries hold several experiments; the values are given in rising order. Brackets with × count equal records among those shown.

System: L1210 leukemia ip in BDF1 mice, survival T/C
Experiment: NCI In Vivo Anticancer Drug Screen. Data for tumor model L1210 Leukemia (intraperitoneal) in B6D2F1 (BDF1) mice
Conditions: higher T/C = longer survival
[1] = T/C endpoint: mean survival time, dose: 400.0 mg/kg/injection, schedule: Q04DX003 (ip), vehicle: saline
[2] = T/C endpoint: median survival time, dose: 64.0 mg/kg/injection, schedule: Q01DX009 (oral), vehicle: saline with Tween-80

## CC(CN1CC(=O)NC(=O)C1)N1CC(=O)NC(=O)C1 (configuration not stated)
T/C endpoint: mean survival time, dose: 200.0 mg/kg/injection, schedule: Q04DX003 (ip), vehicle: saline with Tween-80, evaluated on day 20
  T/C: 117 % of control
T/C endpoint: mean survival time, dose: 200.0 mg/kg/injection, schedule: Q04DX003 (ip), vehicle: saline with Tween-80, evaluated on day 30
  T/C: 138 % of control
T/C endpoint: mean survival time, dose: 200.0 mg/kg/injection, schedule: Q04DX003 (ip), vehicle: saline with Tween-80, evaluated on day 60
  T/C: 117 and 120 % of control
T/C endpoint: mean survival time, dose: 200.0 mg/kg/injection, schedule: Q04DX003 (ip), vehicle: saline, evaluated on day 30
  T/C: 94, 135 [5 of 6 alive], 137, 140, 142, 165 % of control
T/C endpoint: mean survival time, dose: 200.0 mg/kg/injection, schedule: Q04DX003 (ip), vehicle: saline, evaluated on day 60
  T/C: 210 % of control
T/C endpoint: mean survival time, dose: 200.0 mg/kg/injection, schedule: Q04DX003 (ip), vehicle: water, evaluated on day 5
  T/C: 236, 239, 282 % of control
T/C endpoint: mean survival time, dose: 200.0 mg/kg/injection, schedule: Q04DX003 (ip), vehicle: water, evaluated on day 30
  T/C: 152 % of control
T/C endpoint: mean survival time, dose: 200.0 mg/kg/injection, schedule: Q04DX003 (ip), vehicle: water, evaluated on day 60
  T/C: 282 and 365 % of control
T/C endpoint: mean survival time, dose: 200.0 mg/kg/injection, schedule: Q04DX003 (iv), vehicle: water
  T/C: 135, 142, 149 % of control
T/C endpoint: mean survival time, dose: 200.0 mg/kg/injection, schedule: Q08DX002 (oral), vehicle: steroid suspending solution
  T/C: 146 % of control
T/C endpoint: mean survival time, dose: 268.0 mg/kg/injection, schedule: Q01DX001 (ip), vehicle: saline
  T/C: 126 % of control
T/C endpoint: mean survival time, dose: 400.0 mg/kg/injection, schedule: Q01DX001 (ip), vehicle: saline, evaluated on day 5
  T/C: 143 % of control
T/C endpoint: mean survival time, dose: 400.0 mg/kg/injection, schedule: Q01DX001 (ip), vehicle: saline, evaluated on day 60
  T/C: 143 and 148 % of control
T/C endpoint: mean survival time, dose: 400.0 mg/kg/injection, schedule: Q01DX001 (ip), vehicle: steroid suspending solution
  T/C: 130 % of control [7 of 8 alive]
T/C endpoint: mean survival time, dose: 400.0 mg/kg/injection, schedule: Q04DX003 (ip), vehicle: Klucel (hydroxypropylcellulose) (HPC), evaluated on day 5
  T/C: 109, 114, 195 % of control
T/C endpoint: mean survival time, dose: 400.0 mg/kg/injection, schedule: Q04DX003 (ip), vehicle: Klucel (hydroxypropylcellulose) (HPC), evaluated on day 30
  T/C: 116 [5 of 6 alive], 138, 143, 170, 175 % of control
T/C endpoint: mean survival time, dose: 400.0 mg/kg/injection, schedule: Q04DX003 (ip), vehicle: Klucel (hydroxypropylcellulose) (HPC), evaluated on day 60
  T/C: 114 (2×), 158, 160, 193 % of control
T/C endpoint: mean survival time, dose: 400.0 mg/kg/injection, schedule: Q04DX003 (ip), vehicle: saline with Tween-80, evaluated on day 20
  T/C: 162 % of control
T/C endpoint: mean survival time, dose: 400.0 mg/kg/injection, schedule: Q04DX003 (ip), vehicle: saline with Tween-80, evaluated on day 30
  T/C: 182 % of control
T/C endpoint: mean survival time, dose: 400.0 mg/kg/injection, schedule: Q04DX003 (ip), vehicle: saline with Tween-80, evaluated on day 60
  T/C: 134 and 136 % of control
[1]
  T/C: 125, 133, 161, 174, 182, 197 % of control
  survivor count: 10 of 10
T/C endpoint: mean survival time, dose: 400.0 mg/kg/injection, schedule: Q04DX003 (ip), vehicle: steroid suspending solution
  T/C: 129 % of control
T/C endpoint: mean survival time, dose: 400.0 mg/kg/injection, schedule: Q04DX003 (ip), vehicle: water, evaluated on day 5
  T/C: 101, 102, 105 % of control
T/C endpoint: mean survival time, dose: 400.0 mg/kg/injection, schedule: Q04DX003 (ip), vehicle: water, evaluated on day 30
  T/C: 171 % of control
T/C endpoint: mean survival time, dose: 400.0 mg/kg/injection, schedule: Q04DX003 (ip), vehicle: water, evaluated on day 60
  T/C: 105 and 164 % of control
T/C endpoint: mean survival time, dose: 400.0 mg/kg/injection, schedule: Q04DX003 (iv), vehicle: water
  T/C: 138 % of control [9 of 10 alive]
T/C endpoint: mean survival time, dose: 400.0 mg/kg/injection, schedule: Q04DX003 (oral), vehicle: steroid suspending solution
  T/C: 146 % of control
T/C endpoint: mean survival time, dose: 400.0 mg/kg/injection, schedule: Q08DX002 (oral), vehicle: steroid suspending solution
  T/C: 148 % of control
T/C endpoint: mean survival time, dose: 512.0 mg/kg/injection, schedule: Q04DX003 (oral), vehicle: saline with Tween-80
  T/C: 132 % of control
T/C endpoint: mean survival time, dose: 800.0 mg/kg/injection, schedule: Q01DX001 (ip), vehicle: steroid suspending solution
  T/C: 133 % of control
T/C endpoint: mean survival time, dose: 800.0 mg/kg/injection, schedule: Q01DX001 (oral), vehicle: steroid suspending solution
  T/C: 128 % of control
T/C endpoint: mean survival time, dose: 800.0 mg/kg/injection, schedule: Q04DX003 (ip), vehicle: steroid suspending solution
  survivor count: 5 of 8
T/C endpoint: mean survival time, dose: 1600.0 mg/kg/injection, schedule: Q08DX002 (oral), vehicle: steroid suspending solution
  T/C: 132 % of control
T/C endpoint: median survival time, dose: 2.0 mg/kg/injection, schedule: Q03HX024 (ip), vehicle: Klucel (hydroxypropylcellulose) (HPC), evaluated on day 7
  T/C: 141 % of control
T/C endpoint: median survival time, dose: 2.0 mg/kg/injection, schedule: Q03HX024 (ip), vehicle: Klucel (hydroxypropylcellulose) (HPC), evaluated on day 30
  T/C: 141 % of control
T/C endpoint: median survival time, dose: 8.0 mg/kg/injection, schedule: Q01DX009 (ip), vehicle: saline with Tween-80
  T/C: 121, 123, 126 (2×), 129 % of control
T/C endpoint: median survival time, dose: 8.0 mg/kg/injection, schedule: Q01DX009 (oral), vehicle: saline with Tween-80
  T/C: 127, 129, 132, 134 % of control
T/C endpoint: median survival time, dose: 12.5 mg/kg/injection, schedule: Q01DX009 (ip), vehicle: Klucel (hydroxypropylcellulose) (HPC)
  T/C: 146 % of control
T/C endpoint: median survival time, dose: 12.5 mg/kg/injection, schedule: Q03HX008 (ip), vehicle: Klucel (hydroxypropylcellulose) (HPC)
  T/C: 144 % of control
T/C endpoint: median survival time, dose: 16.0 mg/kg/injection, schedule: Q01DX009 (ip), vehicle: saline with Tween-80
  T/C: 136, 142, 144, 145, 152 % of control
T/C endpoint: median survival time, dose: 16.0 mg/kg/injection, schedule: Q01DX009 (oral), vehicle: saline with Tween-80
  T/C: 142, 144, 150, 158 % of control
T/C endpoint: median survival time, dose: 16.0 mg/kg/injection, schedule: Q01DX009 (sc), vehicle: saline with Tween-80
  T/C: 125 % of control
T/C endpoint: median survival time, dose: 16.0 mg/kg/injection, schedule: Q03HX024 (ip), vehicle: Klucel (hydroxypropylcellulose) (HPC), evaluated on day 7
  T/C: 146 and 220 % of control
T/C endpoint: median survival time, dose: 16.0 mg/kg/injection, schedule: Q03HX024 (ip), vehicle: Klucel (hydroxypropylcellulose) (HPC), evaluated on day 30
  T/C: 220 % of control
T/C endpoint: median survival time, dose: 16.0 mg/kg/injection, schedule: Q03HX024 (ip), vehicle: Klucel (hydroxypropylcellulose) (HPC), evaluated on day 32
  T/C: 130 % of control [7 of 8 alive]
T/C endpoint: median survival time, dose: 25.0 mg/kg/injection, schedule: Q01DX009 (ip), vehicle: Klucel (hydroxypropylcellulose) (HPC)
  T/C: 145 % of control
T/C endpoint: median survival time, dose: 27.0 mg/kg/injection, schedule: Q03HX024 (ip), vehicle: Klucel (hydroxypropylcellulose) (HPC), evaluated on day 7
  T/C: 148 % of control
T/C endpoint: median survival time, dose: 27.0 mg/kg/injection, schedule: Q03HX024 (ip), vehicle: Klucel (hydroxypropylcellulose) (HPC), evaluated on day 32
  T/C: 145 % of control
T/C endpoint: median survival time, dose: 32.0 mg/kg/injection, schedule: Q01DX009 (ip), vehicle: saline with Tween-80
  T/C: 156, 158, 165, 173, 176 % of control
T/C endpoint: median survival time, dose: 32.0 mg/kg/injection, schedule: Q01DX009 (oral), vehicle: saline with Tween-80
  T/C: 104, 130 [9 of 10 alive], 158, 184 % of control
T/C endpoint: median survival time, dose: 50.0 mg/kg/injection, schedule: Q03HX008 (ip), vehicle: Klucel (hydroxypropylcellulose) (HPC)
  T/C: 134 % of control
T/C endpoint: median survival time, dose: 50.0 mg/kg/injection, schedule: Q04DX003 (ip), vehicle: Klucel (hydroxypropylcellulose) (HPC), evaluated on day 5
  T/C: 93, 105, 108, 132, 164 % of control
T/C endpoint: median survival time, dose: 50.0 mg/kg/injection, schedule: Q04DX003 (ip), vehicle: Klucel (hydroxypropylcellulose) (HPC), evaluated on day 30
  T/C: 132 % of control
T/C endpoint: median survival time, dose: 50.0 mg/kg/injection, schedule: Q04DX003 (ip), vehicle: Klucel (hydroxypropylcellulose) (HPC), evaluated on day 46
  T/C: 95 % of control
T/C endpoint: median survival time, dose: 50.0 mg/kg/injection, schedule: Q04DX003 (ip), vehicle: Klucel (hydroxypropylcellulose) (HPC), evaluated on day 60
  T/C: 100, 108, 166 % of control
T/C endpoint: median survival time, dose: 64.0 mg/kg/injection, schedule: Q01DX009 (ip), vehicle: saline with Tween-80
  T/C: 141, 150 [9 of 10 alive], 168, 173, 176 % of control
[2]
  T/C: 97, 101 [9 of 10 alive], 124 % of control
  survivor count: 10 of 10
T/C endpoint: median survival time, dose: 64.0 mg/kg/injection, schedule: Q01DX009 (sc), vehicle: saline with Tween-80
  T/C: 139 % of control
T/C endpoint: median survival time, dose: 64.0 mg/kg/injection, schedule: Q03HX024 (ip), vehicle: Klucel (hydroxypropylcellulose) (HPC), evaluated on day 7
  T/C: 138 % of control
T/C endpoint: median survival time, dose: 64.0 mg/kg/injection, schedule: Q03HX024 (ip), vehicle: Klucel (hydroxypropylcellulose) (HPC), evaluated on day 30
  T/C: 138 % of control
